Reference: publication doi:10.1101/2020.01.13.904904
Results are given in words; binding and its absence hold for the method and conditions named. Binding seen in cells or lysates may run through a third protein. Some results given as binding are weak or reduced against the parent protein; the word gives no strength.

The chains behind the UniProt entries cited, without tags or fusion partners.
UniProt P83917: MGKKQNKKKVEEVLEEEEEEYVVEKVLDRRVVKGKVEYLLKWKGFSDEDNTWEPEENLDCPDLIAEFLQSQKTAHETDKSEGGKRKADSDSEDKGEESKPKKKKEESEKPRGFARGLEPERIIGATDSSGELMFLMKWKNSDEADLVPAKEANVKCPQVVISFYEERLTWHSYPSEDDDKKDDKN
UniProt P70398: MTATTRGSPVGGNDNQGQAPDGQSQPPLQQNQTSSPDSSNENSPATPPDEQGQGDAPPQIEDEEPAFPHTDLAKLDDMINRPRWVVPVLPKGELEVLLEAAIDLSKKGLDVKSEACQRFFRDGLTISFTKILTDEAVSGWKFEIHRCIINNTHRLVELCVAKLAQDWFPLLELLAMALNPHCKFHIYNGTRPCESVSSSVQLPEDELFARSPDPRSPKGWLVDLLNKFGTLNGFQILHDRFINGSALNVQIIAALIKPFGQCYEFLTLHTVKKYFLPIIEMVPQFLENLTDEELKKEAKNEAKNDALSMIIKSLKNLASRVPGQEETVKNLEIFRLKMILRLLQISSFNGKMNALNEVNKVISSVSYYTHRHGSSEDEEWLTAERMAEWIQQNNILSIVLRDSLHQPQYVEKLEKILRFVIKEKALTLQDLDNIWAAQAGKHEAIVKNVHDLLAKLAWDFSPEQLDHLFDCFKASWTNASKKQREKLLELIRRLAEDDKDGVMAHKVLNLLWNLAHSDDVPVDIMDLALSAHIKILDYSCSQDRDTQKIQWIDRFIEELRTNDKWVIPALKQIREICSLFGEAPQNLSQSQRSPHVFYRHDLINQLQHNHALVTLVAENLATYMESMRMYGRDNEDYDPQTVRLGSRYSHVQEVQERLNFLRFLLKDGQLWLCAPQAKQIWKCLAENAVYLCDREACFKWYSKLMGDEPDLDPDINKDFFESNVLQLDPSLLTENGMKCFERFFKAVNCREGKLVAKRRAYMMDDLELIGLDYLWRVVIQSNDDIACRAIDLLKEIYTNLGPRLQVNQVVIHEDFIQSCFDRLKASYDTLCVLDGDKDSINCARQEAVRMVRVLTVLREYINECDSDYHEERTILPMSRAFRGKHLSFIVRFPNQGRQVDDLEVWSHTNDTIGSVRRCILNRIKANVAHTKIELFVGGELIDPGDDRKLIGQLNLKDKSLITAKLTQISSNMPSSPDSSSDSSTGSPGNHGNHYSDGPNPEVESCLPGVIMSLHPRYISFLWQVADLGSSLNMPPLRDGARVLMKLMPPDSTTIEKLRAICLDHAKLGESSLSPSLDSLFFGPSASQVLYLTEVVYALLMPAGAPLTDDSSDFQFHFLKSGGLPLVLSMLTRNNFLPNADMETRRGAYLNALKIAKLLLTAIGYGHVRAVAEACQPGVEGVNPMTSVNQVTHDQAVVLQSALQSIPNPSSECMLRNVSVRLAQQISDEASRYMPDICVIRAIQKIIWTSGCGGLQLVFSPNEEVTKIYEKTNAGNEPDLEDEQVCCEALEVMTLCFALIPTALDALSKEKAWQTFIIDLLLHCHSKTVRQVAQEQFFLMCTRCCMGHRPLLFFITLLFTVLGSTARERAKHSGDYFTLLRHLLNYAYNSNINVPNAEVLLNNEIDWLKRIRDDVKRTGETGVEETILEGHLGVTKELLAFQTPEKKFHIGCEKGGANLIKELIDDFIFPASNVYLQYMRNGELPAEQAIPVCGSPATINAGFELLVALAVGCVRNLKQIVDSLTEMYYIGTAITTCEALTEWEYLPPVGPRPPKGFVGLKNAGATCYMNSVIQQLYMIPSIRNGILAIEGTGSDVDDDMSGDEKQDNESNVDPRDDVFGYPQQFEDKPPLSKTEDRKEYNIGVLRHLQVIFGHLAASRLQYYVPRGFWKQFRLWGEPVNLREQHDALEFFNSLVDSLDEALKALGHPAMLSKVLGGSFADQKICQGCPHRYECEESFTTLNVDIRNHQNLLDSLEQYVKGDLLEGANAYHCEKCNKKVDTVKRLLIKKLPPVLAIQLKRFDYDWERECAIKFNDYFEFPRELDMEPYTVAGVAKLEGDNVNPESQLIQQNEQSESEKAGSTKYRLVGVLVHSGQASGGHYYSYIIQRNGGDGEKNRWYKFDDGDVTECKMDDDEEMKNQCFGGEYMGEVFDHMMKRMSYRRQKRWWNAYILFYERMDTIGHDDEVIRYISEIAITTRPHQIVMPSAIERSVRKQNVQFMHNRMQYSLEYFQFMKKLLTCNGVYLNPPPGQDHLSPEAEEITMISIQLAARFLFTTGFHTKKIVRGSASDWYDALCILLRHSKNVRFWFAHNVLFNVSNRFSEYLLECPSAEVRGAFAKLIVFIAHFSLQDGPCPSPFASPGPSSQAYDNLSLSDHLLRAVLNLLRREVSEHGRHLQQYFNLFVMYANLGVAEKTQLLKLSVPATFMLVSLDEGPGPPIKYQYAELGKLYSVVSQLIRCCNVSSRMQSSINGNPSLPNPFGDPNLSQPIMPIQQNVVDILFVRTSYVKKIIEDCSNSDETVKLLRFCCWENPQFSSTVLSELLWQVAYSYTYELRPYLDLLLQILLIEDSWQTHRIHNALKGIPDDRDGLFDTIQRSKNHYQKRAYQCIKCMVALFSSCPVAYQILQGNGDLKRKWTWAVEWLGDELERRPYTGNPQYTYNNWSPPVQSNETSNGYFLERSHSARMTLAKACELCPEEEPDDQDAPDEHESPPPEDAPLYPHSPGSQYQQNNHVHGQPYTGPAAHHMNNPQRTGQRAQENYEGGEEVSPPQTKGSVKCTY

Key:
[1] = biological target: chromatin factor CBX1 (mouse (endogenous in ESC)) (UniProt P83917); assay: co-IP
[2] = biological target: T1, ESRRB (mouse (endogenous in ESC)) (UniProt Q61539); assay: co-IP
T1 sequence: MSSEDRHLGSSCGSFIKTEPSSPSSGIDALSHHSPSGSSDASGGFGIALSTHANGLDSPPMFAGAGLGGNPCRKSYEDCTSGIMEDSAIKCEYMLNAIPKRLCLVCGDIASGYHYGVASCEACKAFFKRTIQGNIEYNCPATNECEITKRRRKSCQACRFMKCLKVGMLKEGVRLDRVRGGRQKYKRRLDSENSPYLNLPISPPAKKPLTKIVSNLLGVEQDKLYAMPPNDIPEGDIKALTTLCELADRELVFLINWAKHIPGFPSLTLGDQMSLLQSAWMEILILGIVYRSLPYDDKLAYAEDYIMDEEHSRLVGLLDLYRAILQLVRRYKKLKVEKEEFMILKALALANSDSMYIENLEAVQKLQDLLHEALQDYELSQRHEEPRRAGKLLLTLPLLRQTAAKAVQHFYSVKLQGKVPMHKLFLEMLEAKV

- binding [1]: binds
- binding [2]: binds
Substance: Deubiquitinase USP9X (from UniProt P70398 1-2559) (enzyme)
